Assay results reported in PubChem BioAssay AID248 (DTP/NCI, 2004).
The list is a part of this screen's results and no random one: it is rich in T/C values a quarter to a half above the control, in often repeated tests (any T/C) and in doses without a T/C. Further doses and runs are listed elsewhere. T/C is the treated group as % of the vehicle group. Some entries give survivors of the animals treated and no T/C: the source files T/C as zero there, which appears to mark a toxic dose or a test without result, not a measured value. Some doses without a T/C left all or most animals alive at the check, yet need not have been tolerated: survival well below the control is almost never listed, so the zero probably covers shortened survival too. Survivors were counted at the toxicity check, usually on the fifth day, unless a day is given; later deaths do not show. Schedules are NCI's codes, read here as Q, the interval in days (D) or hours (H), X, the number of doses. Some schedules carry Z or #; the key to these is not given. Some entries hold several experiments; the results are listed from low to high. For survival time, this PubChem deposit counts one and a half times the control or more as active, and values a quarter to a half above the control carry no call in these data; other NCI protocols may use other cut-offs. Some T/C values carry the count of animals alive at the toxicity check (mostly the fifth day); without a count, all were alive then.

Tested on: L1210 leukemia ip in BDF1 mice, survival T/C
Experiment: NCI In Vivo Anticancer Drug Screen. Data for tumor model L1210 Leukemia (intraperitoneal) in B6D2F1 (BDF1) mice
Details: T/C endpoint: mean survival time, higher T/C = longer survival
[1] = dose: 200.0 mg/kg/injection, schedule: Q04DX003 (ip), vehicle: saline with Tween-80
[2] = dose: 400.0 mg/kg/injection, schedule: Q04DX003 (ip), vehicle: saline with Tween-80

CCC1(Sc2ncnc3nc[nH]c23)C(=O)NC(=O)NC1=O was tested, and the T/C (dose: 12.5 mg/kg/injection, schedule: Q01DX015 (ip), vehicle: alkali diluted with saline) was 126 % of control, the T/C (dose: 25.0 mg/kg/injection, schedule: Q01DX015 (ip), vehicle: alkali diluted with saline) was 134 % of control and the T/C (dose: 50.0 mg/kg/injection, schedule: Q01DX015 (ip), vehicle: alkali diluted with saline) was 140 % of control. The T/C (dose: 100.0 mg/kg/injection, schedule: Q01DX015 (ip), vehicle: alkali diluted with saline) was 145 % of control and the survivor count (dose: 800.0 mg/kg/injection, schedule: Q01DX001 (ip), vehicle: alkali diluted with saline) was 2 of 6.

CC1CCC(C(C)C)C(NCCO)C1 (stereo not drawn) was tested, and the survivor count (dose: 150.0 mg/kg/injection, schedule: Q01DX001 (ip), vehicle: saline) was 1 of 6 and the survivor count (dose: 300.0 mg/kg/injection, schedule: Q01DX001 (ip), vehicle: saline) was 0 of 6.

CC(N)COCc1ccccc1 (stereo not drawn) was tested, and the survivor count (dose: 100.0 mg/kg/injection, schedule: Q01DX009 (ip), vehicle: saline) was 2 of 6, the survivor count [1] was 1 of 6 and the survivor count [2] was 0 of 6.

O=NNc1ccccn1 was tested, and the T/C (dose: 12.5 mg/kg/injection, schedule: Q01DX009 (ip), vehicle: saline) was 137 % of control, the T/C (dose: 12.5 mg/kg/injection, schedule: Q04DX003 (ip), vehicle: saline) was 131 and 136 % of control and the T/C (dose: 18.0 mg/kg/injection, schedule: Q04DX003 (ip), vehicle: saline) was 134 % of control. The T/C (dose: 18.75 mg/kg/injection, schedule: Q04DX003 (ip), vehicle: saline) was 134 % of control, the survivor count (dose: 25.0 mg/kg/injection, schedule: Q01DX009 (ip), vehicle: saline) was 6 of 6 and the T/C (dose: 25.0 mg/kg/injection, schedule: Q04DX003 (ip), vehicle: saline) was 131 % of control. The survivor count (dose: 50.0 mg/kg/injection, schedule: Q01DX009 (ip), vehicle: saline) was 4 of 6, the survivor count (dose: 100.0 mg/kg/injection, schedule: Q04DX003 (ip), vehicle: saline) was 5 of 6 and the survivor count (dose: 200.0 mg/kg/injection, schedule: Q04DX003 (ip), vehicle: saline) was 2 of 4. For the same compound, the survivor count (dose: 400.0 mg/kg/injection, schedule: Q04DX003 (ip), vehicle: saline) was 0 of 6.

For CC(C)C(CN)(CCCCN1CCCC1)c1cccc2ccccc12 (stereo not drawn), the survivor count (dose: 100.0 mg/kg/injection, schedule: Q04DX003 (ip), vehicle: saline with Tween-80) was 3 of 6, the survivor count [1] was 0 of 6 and the survivor count [2] was 0 of 6.

NC(=O)c1cn[nH]c1/N=N/N(CCF)CCF was tested, and the T/C (dose: 15.0 mg/kg/injection, schedule: Q01DX009 (ip), vehicle: other) was 136 % of control [5 of 6 alive], the survivor count (dose: 38.0 mg/kg/injection, schedule: Q01DX001 (ip), vehicle: other) was 1 of 6 and the survivor count (dose: 75.0 mg/kg/injection, schedule: Q01DX001 (ip), vehicle: other) was 0 of 6. The survivor count (dose: 150.0 mg/kg/injection, schedule: Q01DX001 (ip), vehicle: other) was 0 of 6 and the survivor count (dose: 300.0 mg/kg/injection, schedule: Q01DX001 (ip), vehicle: other) was 0 of 6.

For [O-][n+]1c(Cl)cc(Cl)c2ccccc21, the survivor count (dose: 200.0 mg/kg/injection, schedule: Q01DX009 (ip), vehicle: saline with Tween-80) was 3 of 6 and the survivor count (dose: 400.0 mg/kg/injection, schedule: Q01DX009 (ip), vehicle: saline with Tween-80) was 0 of 6.

With N/C([Se])=N\N=C/c1cccnc1 the survivor count (dose: 100.0 mg/kg/injection, schedule: Q01DX001 (ip), vehicle: Klucel (hydroxypropylcellulose) (HPC)) was 0 of 6, the survivor count (dose: 200.0 mg/kg/injection, schedule: Q01DX001 (ip), vehicle: Klucel (hydroxypropylcellulose) (HPC)) was 0 of 6 and the survivor count (dose: 400.0 mg/kg/injection, schedule: Q01DX001 (ip), vehicle: Klucel (hydroxypropylcellulose) (HPC)) was 0 of 6.

C=Cn1cc[n+](Cc2ccccc2)c1C was tested, and the survivor count (dose: 100.0 mg/kg/injection, schedule: Q04DX002 (ip), vehicle: Klucel (hydroxypropylcellulose) (HPC)) was 0 of 6, the survivor count (dose: 100.0 mg/kg/injection, schedule: Q04DX002 (ip), vehicle: saline) was 0 of 3 and 0 of 6 and the survivor count (dose: 200.0 mg/kg/injection, schedule: Q04DX002 (ip), vehicle: Klucel (hydroxypropylcellulose) (HPC)) was 0 of 6. The survivor count (dose: 200.0 mg/kg/injection, schedule: Q04DX002 (ip), vehicle: saline) was 0 of 3 and 0 of 6, the survivor count (dose: 400.0 mg/kg/injection, schedule: Q04DX002 (ip), vehicle: Klucel (hydroxypropylcellulose) (HPC)) was 0 of 6 and the survivor count (dose: 400.0 mg/kg/injection, schedule: Q04DX002 (ip), vehicle: saline) was 0 of 3 and 0 of 6.

CCSc1nc(N)c(Br)c(Sc2nc(N)nc3nc[nH]c23)n1 was tested, and the survivor count (dose: 200.0 mg/kg/injection, schedule: Q01DX Z (ip), vehicle: methylcellulose (MC)) was 6 of 6.

With O=C1C(O)=C(c2ccccc2)C(=O)C(O)=C1c1ccccc1 the survivor count (dose: 100.0 mg/kg/injection, schedule: Q01DX009 (ip), vehicle: Klucel (hydroxypropylcellulose) (HPC)) was 2 of 6 and 2 of 3, the survivor count (dose: 200.0 mg/kg/injection, schedule: Q01DX009 (ip), vehicle: Klucel (hydroxypropylcellulose) (HPC)) was 0 of 3 and the survivor count (dose: 400.0 mg/kg/injection, schedule: Q01DX009 (ip), vehicle: Klucel (hydroxypropylcellulose) (HPC)) was 0 of 3.
